We go through three molecules from publication PMC9368909.

The chains behind the UniProt entries cited, without tags or fusion partners.
UniProt O14733: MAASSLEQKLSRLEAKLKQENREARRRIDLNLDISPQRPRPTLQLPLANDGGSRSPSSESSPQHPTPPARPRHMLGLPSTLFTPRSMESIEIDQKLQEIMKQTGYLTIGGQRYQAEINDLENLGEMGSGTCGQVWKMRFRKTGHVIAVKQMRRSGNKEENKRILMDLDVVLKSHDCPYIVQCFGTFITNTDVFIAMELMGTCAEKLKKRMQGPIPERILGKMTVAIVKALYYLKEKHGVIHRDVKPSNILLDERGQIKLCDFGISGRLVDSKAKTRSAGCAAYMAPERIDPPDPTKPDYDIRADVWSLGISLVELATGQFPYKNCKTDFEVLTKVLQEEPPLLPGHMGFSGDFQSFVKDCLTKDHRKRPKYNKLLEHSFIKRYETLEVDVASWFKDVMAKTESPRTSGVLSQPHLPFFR

Experiment in all cases: pull-down; MBP fusions (10 μg) immobilised on amylose resin, incubated with purified kinase (5 μg) for 2 h at 4 °C in 20 mM Tris-HCl pH 7.2, 150 mM NaCl; three washes; eluted with 50 mM maltose; Western blot with densitometry; both purified
(In western blotting, separated proteins are transferred to a membrane and probed.)

The target in test [1] is MBP fusion of full-length arrestin-3 (UniProt P32120).
Test [2] addresses MBP fusion of T1A peptide (first 25 N-terminal residues of arrestin-3) (UniProt P32120).
Test [3] has as its target T1, MBP fusion of T1A peptide (first 25 N-terminal residues of arrestin-3), P32120.
T1 chain: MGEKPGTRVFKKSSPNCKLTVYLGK
Conditions: remark: other sources report otherwise.

Results are given in words; binding and its absence hold for the method and conditions named. Some entries that bind do so weakly or less than the wild type. For some of these results: Where a sequence is shown, tags or fusion partners need not be part of it.

Take “GST-MKK7 (from UniProt O14733 1-419) (enzyme)”: the binding result in test [1] and in test [2] was “binds” in each case.

B1: GST-MKK4 (enzyme, UniProt P45985 1-399)
chain: MAAPSPSGGGGSGGGSGSGTPGPVGSPAPGHPAVSSMQGKRKALKLNFANPPFKSTARFTLNPNPTGVQNPHIERLRTHSIESSGKLKISPEQHWDFTAEDLKDLGEIGRGAYGSVNKMVHKPSGQIMAVKRIRSTVDEKEQKQLLMDLDVVMRSSDCPYIVQFYGALFREGDCWICMELMSTSFDKFYKYVYSVLDDVIPEEILGKITLATVKALNHLKENLKIIHRDIKPSNILLDRSGNIKLCDFGISGQLVDSIAKTRDAGCRPYMAPERIDPSASRQGYDVRSDVWSLGITLYELATGRFPYPKWNSVFDQLTQVVKGDPPQLSNSEEREFSPSFINFVNLCLTKDESKRPKYKELLKHPFILMYEERAVEVACYVCKILDQMPATPSSPMYVD
Take B1: the binding result in test [1] is on record as “binds”.

B2: GST-MKK4, P45985 1-399 (enzyme)
chain: B1 chain
On to B2, for which the binding entry in test [3] is “no binding (tested: 5 μg GST-MKK4 on 10 μg MBP fusion)”.
